We go through 1 compound from US20260144890A1, “ANTIBODY DRUG CONJUGATE COMPRISING NMT INHIBITOR CONJUGATED TO AN ANTIBODY” (MyricX Pharma Limited, priority 2024, published 2026).

SMILES strings stand for the structures.

Type in all cases: cell-based
The test system of assay [1] is gastric cancer organoid GA6894B. Briefly: Gastric cancer organoid viability (CTG 3D), GA6894B. How it is done: (§1) Day −1: Patient derived gastric cancer organoids (PDXOs) are sheared to uniform sizes and the required number of organoids are combined 1:1 with 50% Matrigel to produce the right size of the organoids to perform the screen.
(§2) Day 0: Organoid seeding • 1. Collect organoids from each well by adding 20 μl 100× Dispase solution to each well from a 6-well plate, which contains 2 ml of organoid medium. • 2. Put the plates back in the incubator, 37° C. for 30 min. • 3. Collect organoids from all wells and pipet through a pre-wet 100 μm filter into a 50 ml plastic tube. • 4. Once all wells have been filtered over 100 μm filters, filter the flow though over a pre-wet 20 μm filter. • 5. […]
(§3) • 10. Place screening plates back into the incubator before adding compounds and day 0 reading. […] One is for day 0 reading (TO) and the other for reading at the end point.
(§4) Day 0: Compounds treatment and Day 0 baseline CTG (cell titre glo) reading • 11. […] For day 0 reading plate, add 40 μL of CTG 3D per well and read luminescent signal on Envision plate reader.
(§5) Day 6: Endpoint CTG reading. • 1. Read assay plates for luminescent CTG signal at the end of the assays: add 40 μL of CTG 3D per well by Multidrop dispenser, mix the contents for 5 min on the plate shaker, and incubate the plates for 30 min at room temperature in dark. Read luminescent signal on Envision plate reader. […]

Assay [2] has as its system gastric cancer organoid GA6866B. Briefly: Gastric cancer organoid viability (CTG 3D), GA6866B. As to the method: as §1, §2, §3, §4, §5
In assay [3] the test system is gastric cancer organoid GA0119B. As to the kind of experiment: Gastric cancer organoid viability (CTG 3D), GA0119B. As to the method: as §1, §2, §3, §4, §5
The subject of assay [4] is gastric cancer organoid GA0429B. Briefly: Gastric cancer organoid viability (CTG 3D), GA0429B. As to the method:
as §1, §2, §3, §4, §5

Assay [5] relates to gastric cancer organoid GA0098B. Briefly: Gastric cancer organoid viability (CTG 3D), GA0098B. As to the method:
as §1, §2, §3, §4, §5

Assay [6] has as its system gastric cancer organoid GA6815B. Briefly: Gastric cancer organoid viability (CTG 3D), GA6815B. As to the method: as §1, §2, §3, §4, §5
Assay [7] concerns gastric cancer organoid GA0091B. Briefly: Gastric cancer organoid viability (CTG 3D), GA0091B. How it is done: as §1, §2, §3, §4, §5
Assay [8] concerns gastric cancer organoid GA6833B. Briefly: Gastric cancer organoid viability (CTG 3D), GA6833B. How it is done:
as §1, §2, §3, §4, §5

Assay [9] has as its system gastric cancer organoid GA6877B. Briefly: Gastric cancer organoid viability (CTG 3D), GA6877B. As to the method:
as §1, §2, §3, §4, §5

Assay [10] concerns gastric cancer organoid GA6891B. As to the kind of experiment: Gastric cancer organoid viability (CTG 3D), GA6891B. As to the method: as §1, §2, §3, §4, §5
The subject of assay [11] is gastric cancer organoid GA0087B. As to the kind of experiment: Gastric cancer organoid viability (CTG 3D), GA0087B. As to the method: as §1, §2, §3, §4, §5
Assay [12] deals with gastric cancer organoid GA3102B. Briefly: Gastric cancer organoid viability (CTG 3D), GA3102B. As to the method:
as §1, §2, §3, §4, §5

For assay [13], the system named is gastric cancer organoid GA2109B. Briefly: Gastric cancer organoid viability (CTG 3D), GA2109B. As to the method:
as §1, §2, §3, §4, §5

The subject of assay [14] is gastric cancer organoid GA2434B. Briefly: Gastric cancer organoid viability (CTG 3D), GA2434B. How it is done: as §1, §2, §3, §4, §5
Assay [15] deals with gastric cancer organoid GA3055B. As to the kind of experiment: Gastric cancer organoid viability (CTG 3D), GA3055B. How it is done:
as §1, §2, §3, §4, §5

The test system of assay [16] is gastric cancer organoid GA0060B. Briefly: Gastric cancer organoid viability (CTG 3D), GA0060B. How it is done: as §1, §2, §3, §4, §5

For `CN[C@@H]1C[C@H]2O[C@@](C)([C@@H]1OC)n1c3ccccc3c3c4c(c5c6ccccc6n2c5c31)C(=O)NC4` [Staurosporine], the Max_Inhibition is given as 100.01% in [1]; 99.97% in [2]; 99.89% in assay [3]; 99.92% in [4]; 99.46% in assay [5]; 99.01% in assay [6]. The Max_Inhibition turned out to be 99.29% in assay [7]; 100.02% in [8]; 99.99% in assay [9]; 99.57% in assay [10]; 98.04% in [11]; 99.71% in assay [12]. Also, the Max_Inhibition in assay [13] turned out to be 99.99%; in assay [14], 99.86%; in assay [15] it was 98.42%; in assay [16] it was 99.99%.
